{"sequences": {"note": "Chains of the proteins cited; added tags and fusions are not shown. Residues count along the entry.", "UniProt P08195, residues 102-630": "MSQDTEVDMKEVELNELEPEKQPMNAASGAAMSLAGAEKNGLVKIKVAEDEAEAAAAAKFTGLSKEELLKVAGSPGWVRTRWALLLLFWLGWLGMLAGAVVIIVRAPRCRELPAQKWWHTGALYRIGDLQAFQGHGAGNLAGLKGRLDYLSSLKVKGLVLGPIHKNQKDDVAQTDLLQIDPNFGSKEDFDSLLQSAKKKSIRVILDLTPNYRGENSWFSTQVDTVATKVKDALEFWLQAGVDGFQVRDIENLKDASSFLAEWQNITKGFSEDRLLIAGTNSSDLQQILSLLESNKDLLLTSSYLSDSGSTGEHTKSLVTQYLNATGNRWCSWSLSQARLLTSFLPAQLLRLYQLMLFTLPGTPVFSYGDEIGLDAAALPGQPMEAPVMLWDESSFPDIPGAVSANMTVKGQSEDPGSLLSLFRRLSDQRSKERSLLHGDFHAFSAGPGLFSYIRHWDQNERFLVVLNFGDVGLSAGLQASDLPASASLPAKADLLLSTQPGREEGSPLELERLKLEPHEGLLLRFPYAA"}, "source": "paper PMC9189354", "binders": {"B1": {"name": "Macrophage migration inhibitory factor (MIF), endogenous (protein, UniProt P14174 1-115)", "chain": "MPMFIVNTNVPRASVPDGFLSELTQQLAQATGKPPQYIAVHVVPDQLMAFGGSSEPCALCSLHSIGKIGGAQNRSYSKLLCGLLAERLRISPDRVYINYYDMNAANVGWNNSTFA"}, "B2": {"name": "Macrophage migration inhibitory factor (MIF), exogenous (protein, UniProt P14174 1-115)", "chain": "B1 chain"}}, "key": {"[1]": {"molecular_target": "Solute carrier family 3 member 2 (SLC3A2), endogenous (human (endogenous in the paper's human cell lines; the line used for the co-IP is not stated)) (UniProt P08195)", "experiment": "co-IP; co-immunoprecipitation of exogenous or endogenous MIF and SLC3A2; cells, antibodies and buffers not described"}, "[2]": {"molecular_target": "Solute carrier family 3 member 2 (SLC3A2), exogenous (UniProt P08195)", "experiment": "co-IP; co-immunoprecipitation of exogenous or endogenous MIF and SLC3A2; cells, antibodies and buffers not described"}}, "note": "No constants are given. Whether binding was seen depends on the method and setting. Binding seen in cells or lysates may run through a third protein. Some results given as binding are weak or reduced against the parent protein; the word gives no strength."}
{"binder": "B1", "values": [{"measurement": "binding", "setting": "[1]", "result": "binds"}]}
{"binder": "B2", "values": [{"measurement": "binding", "setting": "[2]", "result": "binds"}]}
